Measurements reported in PubChem BioAssay AID504764 (Drosophila RNAi Screening Center, 2011)
Aim: 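Knock-downs that raise or lower a Notch target reporter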 (primary screen). Cells: Drosophila Kc167 cells. Knock-down reagent: long dsRNA against Drosophila genes. Timing: about 5 days (4 days dsRNA, then 24 h after transfection). Treatment: transfection of constitutively active membrane-tethered Notch lacking the extracellular domain, read 24 h later. Read-out: 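Firefly luciferase from an E(spl)m3 reporter with active Notch, plus control-promoter and uninduced reporter wells for normalisation; unnormalised counts, duplicate wells a and b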. Scale: induced reporter light, run 1, well a and induced reporter light, run 1, well b: higher = more light from the Notch target reporter with active Notch; control promoter light, run 1, well a and control promoter light, run 1, well b: higher = more light from the viral control promoter (cell number, transfection, viability); uninduced reporter light, run 1, well a: higher = more light from the Notch target reporter without active Notch. Active means: 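Wells with low control signal or poorly matching duplicates excluded; duplicates averaged; per source plate, z beyond ±2 for induced/control log2 ratio or beyond ±1.8 for induced/uninduced marks a hit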. Calls: active = modifier hit (raised or lowered Notch signal); inactive = not a hit.
In all, the deposit lists about 22,000 reagents; below is a random part of those that have a named target and a result. In the full data, 403 (1.9%) were called active. 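Unnormalised raw counts per well; ratio z-scores behind the hit calls and whether each hit raises or lowers signal are not deposited.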 The numbers tell different reagents against one gene apart. Not given: the amount of reagent.

| Gene | reagent no. | induced reporter light, run 1, well a | induced reporter light, run 1, well b | control promoter light, run 1, well a | control promoter light, run 1, well b | uninduced reporter light, run 1, well a | activity call |
| --- | --- | --- | --- | --- | --- | --- | --- |
| CG31141 | 1 | 1.90e5 | 1.93e5 | 2.27e5 | 2.39e5 | 15385 | inactive |
| Fmr1 | 1 | 91375 | 99705 | 82700 | 75470 | 4800 | inactive |
| MstProx | 1 | 1.65e5 | 1.31e5 | 1.43e5 | 1.39e5 | 10160 | inactive |
| MstProx | 2 | 79380 | 1.16e5 | 99685 | 83605 | 5420 | inactive |
| Gpo2 | 1 | 1.88e5 | 1.80e5 | 2.54e5 | 2.41e5 | 14575 | inactive |
| ND-24 | 1 | 98360 | 98265 | 96880 | 46820 | 8095 | inactive |
| Ccdc85 | 1 | 48535 | 38090 | 20015 | 21210 | 7950 | inactive |
| CG11414 | 1 | 2.17e5 | 1.77e5 | 1.92e5 | 2.35e5 | 15375 | inactive |
| AlaRS-m | 1 | 1.20e5 | 1.09e5 | 87970 | 38365 | 9960 | inactive |
| CG32795 | 1 | 91210 | 1.09e5 | 1.40e5 | 1.08e5 | 6645 | inactive |
| CG32795 | 2 | 89895 | 1.15e5 | 1.57e5 | 1.40e5 | 8020 | inactive |
| tna | 1 | 1.96e5 | 1.91e5 | 2.27e5 | 1.84e5 | 12515 | inactive |
| tna | 2 | 88210 | 1.00e5 | 1.28e5 | 1.33e5 | 7632 | inactive |
| CG13386 | 1 | 1.32e5 | 1.77e5 | 96320 | 1.41e5 | 21250 | inactive |
| CR12798 | 1 | 1.47e5 | 1.36e5 | 1.44e5 | 2.07e5 | 12355 | inactive |
| CG7884 | 1 | 96635 | 91950 | 1.06e5 | 1.19e5 | 12640 | inactive |
| Est-Q | 1 | 97600 | 1.52e5 | 66425 | 92950 | 9292 | inactive |
| hoip | 1 | 8382 | 9785 | 9050 | 6290 | 1105 | inactive |
| CG8564 | 1 | 1.20e5 | 1.09e5 | 55735 | 37515 | 8925 | inactive |
| colt | 1 | 1.36e5 | 1.59e5 | 1.73e5 | 1.70e5 | 14745 | inactive |
| CG32488 | 1 | 1.99e5 | 1.84e5 | 3.20e5 | 2.88e5 | 14200 | inactive |

Targets listed so far whose gene name starts with T or t:
| Gene | reagent no. | induced reporter light, run 1, well a | induced reporter light, run 1, well b | control promoter light, run 1, well a | control promoter light, run 1, well b | uninduced reporter light, run 1, well a | activity call |
| --- | --- | --- | --- | --- | --- | --- | --- |
| tna | 1 | 1.96e5 | 1.91e5 | 2.27e5 | 1.84e5 | 12515 | inactive |
| tna | 2 | 88210 | 1.00e5 | 1.28e5 | 1.33e5 | 7632 | inactive |

The list goes on.
| Gene | reagent no. | induced reporter light, run 1, well a | induced reporter light, run 1, well b | control promoter light, run 1, well a | control promoter light, run 1, well b | uninduced reporter light, run 1, well a | activity call |
| --- | --- | --- | --- | --- | --- | --- | --- |
| dpr3 | 1 | 95040 | 79680 | 79615 | 51185 | 6055 | inactive |
| dpr3 | 2 | 87485 | 98435 | 78325 | 36455 | 8500 | inactive |
| dpr3 | 3 | – | – | – | – | – | inactive |
| CG33111 | 1 | 1.85e5 | 1.81e5 | 2.12e5 | 2.16e5 | 17805 | inactive |
| CG33111 | 2 | 1.43e5 | 1.52e5 | 2.13e5 | 2.06e5 | 13445 | inactive |
| fusl | 1 | 1.88e5 | 1.84e5 | 1.75e5 | 2.06e5 | 13335 | inactive |
| Cpr23B | 1 | 1.10e5 | 94205 | 94370 | 79570 | 7915 | inactive |
| Shmt | 1 | 1.32e5 | 1.55e5 | 2.51e5 | 2.63e5 | 10890 | inactive |
| emei | 1 | 1.37e5 | 1.56e5 | 2.05e5 | 1.99e5 | 8030 | inactive |
| Nelf-E | 1 | 1.43e5 | 1.31e5 | 1.37e5 | 1.21e5 | 8805 | inactive |
| lncRNA:CR42862 | 1 | 1.08e5 | 1.29e5 | 2.28e5 | 2.36e5 | 8165 | inactive |
| nuf | 1 | 1.81e5 | 1.56e5 | 2.40e5 | 2.16e5 | 8645 | inactive |
| CG16989 | 1 | 1.04e5 | 89205 | 1.82e5 | 1.61e5 | 7460 | inactive |
| Mer | 1 | 93160 | 1.21e5 | 1.06e5 | 59480 | 9050 | inactive |
| Sec13 | 1 | 1.18e5 | 1.37e5 | 1.69e5 | 1.93e5 | 8655 | inactive |
| MTA1-like | 1 | 46565 | 49300 | 22328 | 22775 | 6170 | inactive |
| CG13896 | 1 | 1.58e5 | 1.46e5 | 2.49e5 | 2.05e5 | 10088 | inactive |
| CG4318 | 1 | 1.32e5 | 1.38e5 | 2.79e5 | 2.57e5 | 9985 | inactive |
| CG13476 | 1 | 1.29e5 | 1.67e5 | 2.22e5 | 1.96e5 | 8930 | inactive |
| Syx18 | 1 | 1.81e5 | 2.04e5 | 2.03e5 | 1.98e5 | 16735 | inactive |
| Cpr64Aa | 1 | 75570 | 70760 | 1.08e5 | 88100 | 4505 | inactive |
| Galt | 1 | 2.62e5 | 2.32e5 | 2.35e5 | 2.53e5 | 20300 | inactive |
| CG17493 | 1 | 25190 | 24432 | 20320 | 23515 | 1605 | inactive |
| CG7024 | 1 | 1.16e5 | 1.06e5 | 2.16e5 | 2.07e5 | 10295 | inactive |
| CG12680 | 1 | 1.04e5 | 90265 | 1.44e5 | 1.30e5 | 6770 | inactive |
| Indy | 1 | 70745 | 82165 | 57965 | 63600 | 5450 | inactive |
| CG15385 | 1 | 1.37e5 | 1.20e5 | 1.04e5 | 74375 | 8740 | inactive |
| CG5815 | 1 | 1.23e5 | 1.26e5 | 1.61e5 | 1.47e5 | 10535 | inactive |
| Upf1 | 1 | 1.59e5 | 1.88e5 | 3.63e5 | 3.54e5 | 15600 | active |
